Test results: the supplement of paper PMC7661543
The effect of the compound repeats well; differences between the knockouts mostly do not.

Tested on: SKBR3
Experiment: relative cell number vs DMSO control (72 h) (% of DMSO); higher = less growth inhibition (more cells)
Protocol: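 QMAP-Seq: a pool of 5 breast cancer cell lines (ZR-75-1, SKBR3, HCC-38, MDA-MB-231, BT-20), each carrying 12 doxycycline-inducible Cas9 sgRNA perturbations (11 knockouts plus non-targeting sgNT), was treated with compounds for 72 h at four 10-fold doses (10 nM-10 uM or 1 nM-1 uM range). Barcodes were amplified and sequenced, and cell number was interpolated from 293T spike-in standard curves. The result is expressed as % of the median of DMSO wells. Two biological replicates.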

CC(=O)Nc1nc(C)c(S(=O)(=O)Nc2ccc(C(O)(C(F)(F)F)C(F)(F)F)cc2)s1 [SR1001]
Settings	relative cell number
sgRNA knockout: sgATF3, 10 nM	132
sgRNA knockout: sgATF3, 100 nM	103
sgRNA knockout: sgATF3, 1000 nM	130
sgRNA knockout: sgATF3, 10000 nM	102
sgRNA knockout: sgATF4, 10 nM	107
sgRNA knockout: sgATF4, 100 nM	101
sgRNA knockout: sgATF4, 1000 nM	106
sgRNA knockout: sgATF4, 10000 nM	114.7
sgRNA knockout: sgATF6, 10 nM	101
sgRNA knockout: sgATF6, 100 nM	82
sgRNA knockout: sgATF6, 1000 nM	95
sgRNA knockout: sgATF6, 10000 nM	124
sgRNA knockout: sgATG7, 10 nM	93.8
sgRNA knockout: sgATG7, 100 nM	92.1
sgRNA knockout: sgATG7, 1000 nM	103
sgRNA knockout: sgATG7, 10000 nM	99.8
sgRNA knockout: sgERN1, 10 nM	117
sgRNA knockout: sgERN1, 100 nM	114
sgRNA knockout: sgERN1, 1000 nM	142
sgRNA knockout: sgERN1, 10000 nM	118
sgRNA knockout: sgHSF1, 10 nM	114
sgRNA knockout: sgHSF1, 100 nM	79.2
sgRNA knockout: sgHSF1, 1000 nM	123
sgRNA knockout: sgHSF1, 10000 nM	116
sgRNA knockout: sgHSF2, 10 nM	88.4
sgRNA knockout: sgHSF2, 100 nM	89.6
sgRNA knockout: sgHSF2, 1000 nM	114
sgRNA knockout: sgHSF2, 10000 nM	118
sgRNA knockout: sgKEAP1, 10 nM	108
sgRNA knockout: sgKEAP1, 100 nM	88.6
sgRNA knockout: sgKEAP1, 1000 nM	111
sgRNA knockout: sgKEAP1, 10000 nM	110
sgRNA knockout: sgNFE2L2, 10 nM	106
sgRNA knockout: sgNFE2L2, 100 nM	106
sgRNA knockout: sgNFE2L2, 1000 nM	101
sgRNA knockout: sgNFE2L2, 10000 nM	137
sgRNA knockout: sgSLC35F2, 10 nM	101
sgRNA knockout: sgSLC35F2, 100 nM	105
sgRNA knockout: sgSLC35F2, 1000 nM	106
sgRNA knockout: sgSLC35F2, 10000 nM	88.3
sgRNA knockout: sgXBP1, 10 nM	125
sgRNA knockout: sgXBP1, 100 nM	98.1
sgRNA knockout: sgXBP1, 1000 nM	122
sgRNA knockout: sgXBP1, 10000 nM	123

CC(C)[C@H](O)C(=O)N[C@@H](C)C(=O)N[C@@H]1C(=O)N(C)CCc2ccccc21 [Semagacestat]
Settings	relative cell number
sgRNA knockout: sgATF3, 10 nM	95.6
sgRNA knockout: sgATF3, 100 nM	113
sgRNA knockout: sgATF3, 1000 nM	75.3
sgRNA knockout: sgATF3, 10000 nM	102
sgRNA knockout: sgATF4, 10 nM	104
sgRNA knockout: sgATF4, 100 nM	104
sgRNA knockout: sgATF4, 1000 nM	104
sgRNA knockout: sgATF4, 10000 nM	77.5
sgRNA knockout: sgATF6, 10 nM	91.2
sgRNA knockout: sgATF6, 100 nM	96.9
sgRNA knockout: sgATF6, 1000 nM	108
sgRNA knockout: sgATF6, 10000 nM	79.1
sgRNA knockout: sgATG7, 10 nM	99.3
sgRNA knockout: sgATG7, 100 nM	88.3
sgRNA knockout: sgATG7, 1000 nM	77
sgRNA knockout: sgATG7, 10000 nM	83.3
sgRNA knockout: sgERN1, 10 nM	87.3
sgRNA knockout: sgERN1, 100 nM	106
sgRNA knockout: sgERN1, 1000 nM	116
sgRNA knockout: sgERN1, 10000 nM	88.4
sgRNA knockout: sgHSF1, 10 nM	107
sgRNA knockout: sgHSF1, 100 nM	109
sgRNA knockout: sgHSF1, 1000 nM	85
sgRNA knockout: sgHSF1, 10000 nM	78.9
sgRNA knockout: sgHSF2, 10 nM	85.6
sgRNA knockout: sgHSF2, 100 nM	89.5
sgRNA knockout: sgHSF2, 1000 nM	91.4
sgRNA knockout: sgHSF2, 10000 nM	73.9
sgRNA knockout: sgKEAP1, 10 nM	84.27
sgRNA knockout: sgKEAP1, 100 nM	120
sgRNA knockout: sgKEAP1, 1000 nM	95.9
sgRNA knockout: sgKEAP1, 10000 nM	95.5
sgRNA knockout: sgNFE2L2, 10 nM	93.6
sgRNA knockout: sgNFE2L2, 100 nM	96.1
sgRNA knockout: sgNFE2L2, 1000 nM	96.7
sgRNA knockout: sgNFE2L2, 10000 nM	77.7
sgRNA knockout: sgSLC35F2, 10 nM	101
sgRNA knockout: sgSLC35F2, 100 nM	88.5
sgRNA knockout: sgSLC35F2, 1000 nM	81.3
sgRNA knockout: sgSLC35F2, 10000 nM	83.79
sgRNA knockout: sgXBP1, 10 nM	127
sgRNA knockout: sgXBP1, 100 nM	96.5
sgRNA knockout: sgXBP1, 1000 nM	90.9
sgRNA knockout: sgXBP1, 10000 nM	91.6

CCC(C)(C)C(=O)O[C@H]1C[C@@H](C)C=C2C=C[C@H](C)[C@H](CC[C@@H]3C[C@@H](O)CC(=O)O3)[C@H]21 [Simvastatin]
Settings	relative cell number
sgRNA knockout: sgATF3, 10 nM	108
sgRNA knockout: sgATF3, 100 nM	90.3
sgRNA knockout: sgATF3, 1000 nM	93.7
sgRNA knockout: sgATF3, 10000 nM	115
sgRNA knockout: sgATF4, 10 nM	102
sgRNA knockout: sgATF4, 100 nM	84.4
sgRNA knockout: sgATF4, 1000 nM	87.8
sgRNA knockout: sgATF4, 10000 nM	94.9
sgRNA knockout: sgATF6, 10 nM	89.9
sgRNA knockout: sgATF6, 100 nM	88.9
sgRNA knockout: sgATF6, 1000 nM	84.3
sgRNA knockout: sgATF6, 10000 nM	100
sgRNA knockout: sgATG7, 10 nM	94.5
sgRNA knockout: sgATG7, 100 nM	102
sgRNA knockout: sgATG7, 1000 nM	87.2
sgRNA knockout: sgATG7, 10000 nM	95.9
sgRNA knockout: sgERN1, 10 nM	102
sgRNA knockout: sgERN1, 100 nM	87.1
sgRNA knockout: sgERN1, 1000 nM	99.11
sgRNA knockout: sgERN1, 10000 nM	84
sgRNA knockout: sgHSF1, 10 nM	99.9
sgRNA knockout: sgHSF1, 100 nM	100
sgRNA knockout: sgHSF1, 1000 nM	89.9
sgRNA knockout: sgHSF1, 10000 nM	102
sgRNA knockout: sgHSF2, 10 nM	110
sgRNA knockout: sgHSF2, 100 nM	91.4
sgRNA knockout: sgHSF2, 1000 nM	86
sgRNA knockout: sgHSF2, 10000 nM	87.4
sgRNA knockout: sgKEAP1, 10 nM	96.2
sgRNA knockout: sgKEAP1, 100 nM	92.3
sgRNA knockout: sgKEAP1, 1000 nM	82.4
sgRNA knockout: sgKEAP1, 10000 nM	98.1
sgRNA knockout: sgNFE2L2, 10 nM	98.9
sgRNA knockout: sgNFE2L2, 100 nM	94.2
sgRNA knockout: sgNFE2L2, 1000 nM	89.4
sgRNA knockout: sgNFE2L2, 10000 nM	104
sgRNA knockout: sgSLC35F2, 10 nM	88.1
sgRNA knockout: sgSLC35F2, 100 nM	95.4
sgRNA knockout: sgSLC35F2, 1000 nM	120
sgRNA knockout: sgSLC35F2, 10000 nM	96
sgRNA knockout: sgXBP1, 10 nM	85.5
sgRNA knockout: sgXBP1, 100 nM	102
sgRNA knockout: sgXBP1, 1000 nM	106
sgRNA knockout: sgXBP1, 10000 nM	110
